Consider 3 molecules from US20220332812A1, “TREATMENT METHODS FOR EYE DISORDERS” (University of Pittsburgh - of the Commonwealth System of …, priority 2019, published 2022).

Chains of the proteins cited; added tags and fusions are not shown. Residues count along the entry.
UniProt P09055, residues 21-798: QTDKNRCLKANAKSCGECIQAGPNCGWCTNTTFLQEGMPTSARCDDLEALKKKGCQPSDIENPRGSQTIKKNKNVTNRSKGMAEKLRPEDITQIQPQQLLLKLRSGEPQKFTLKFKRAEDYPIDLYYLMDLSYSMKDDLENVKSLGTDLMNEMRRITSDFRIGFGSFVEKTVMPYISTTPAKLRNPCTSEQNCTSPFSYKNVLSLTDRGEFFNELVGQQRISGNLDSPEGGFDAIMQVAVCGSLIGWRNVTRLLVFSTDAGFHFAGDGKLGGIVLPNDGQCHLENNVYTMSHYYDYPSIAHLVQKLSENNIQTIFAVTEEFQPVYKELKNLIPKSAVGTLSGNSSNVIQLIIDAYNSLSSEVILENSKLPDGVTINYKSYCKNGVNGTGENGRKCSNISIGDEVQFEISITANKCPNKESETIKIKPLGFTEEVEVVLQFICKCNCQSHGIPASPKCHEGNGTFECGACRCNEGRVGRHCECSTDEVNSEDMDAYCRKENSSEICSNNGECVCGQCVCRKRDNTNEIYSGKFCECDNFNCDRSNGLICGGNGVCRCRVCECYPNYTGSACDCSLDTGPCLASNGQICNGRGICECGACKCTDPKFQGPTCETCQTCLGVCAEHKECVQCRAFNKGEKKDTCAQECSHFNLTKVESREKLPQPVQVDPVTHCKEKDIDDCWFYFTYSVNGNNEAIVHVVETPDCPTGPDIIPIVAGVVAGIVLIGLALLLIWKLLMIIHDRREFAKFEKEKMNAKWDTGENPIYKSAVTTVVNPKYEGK

These are yes or no findings as the source states them, for the method shown. Binding seen in cells or lysates may run through a third protein. Some binding calls cover weakened binding; strength is not graded here.

The target in assay [1] is integrin β1 (endogenous, in mouse bone marrow-derived neutrophils) (mouse) (UniProt P09055). The experiment in a line: co-immunoprecipitation from neutrophil lysates, western blot.
Assay [2] has as its target T1, PTP1B (endogenous, astrocytes) (rat) (UniProt P20417).
T1 sequence (looked up): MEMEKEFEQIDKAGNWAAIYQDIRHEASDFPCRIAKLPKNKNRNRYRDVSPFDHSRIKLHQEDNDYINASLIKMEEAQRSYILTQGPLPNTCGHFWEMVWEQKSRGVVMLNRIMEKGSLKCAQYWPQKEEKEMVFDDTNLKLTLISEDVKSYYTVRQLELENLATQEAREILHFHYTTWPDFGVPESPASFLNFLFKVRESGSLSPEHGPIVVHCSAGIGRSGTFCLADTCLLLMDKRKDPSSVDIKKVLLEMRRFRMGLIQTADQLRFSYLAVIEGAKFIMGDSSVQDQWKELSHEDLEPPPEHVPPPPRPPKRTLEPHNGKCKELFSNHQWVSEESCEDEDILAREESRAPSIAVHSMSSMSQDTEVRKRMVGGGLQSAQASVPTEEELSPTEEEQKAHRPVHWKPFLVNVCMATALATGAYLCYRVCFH
The experiment in a line: co-immunoprecipitation in wild-type astrocytes.

Assay [3] has as its target T2, Dab2 (endogenous, in mouse bone marrow-derived neutrophils) (mouse) (UniProt P98078).
T2 sequence (looked up): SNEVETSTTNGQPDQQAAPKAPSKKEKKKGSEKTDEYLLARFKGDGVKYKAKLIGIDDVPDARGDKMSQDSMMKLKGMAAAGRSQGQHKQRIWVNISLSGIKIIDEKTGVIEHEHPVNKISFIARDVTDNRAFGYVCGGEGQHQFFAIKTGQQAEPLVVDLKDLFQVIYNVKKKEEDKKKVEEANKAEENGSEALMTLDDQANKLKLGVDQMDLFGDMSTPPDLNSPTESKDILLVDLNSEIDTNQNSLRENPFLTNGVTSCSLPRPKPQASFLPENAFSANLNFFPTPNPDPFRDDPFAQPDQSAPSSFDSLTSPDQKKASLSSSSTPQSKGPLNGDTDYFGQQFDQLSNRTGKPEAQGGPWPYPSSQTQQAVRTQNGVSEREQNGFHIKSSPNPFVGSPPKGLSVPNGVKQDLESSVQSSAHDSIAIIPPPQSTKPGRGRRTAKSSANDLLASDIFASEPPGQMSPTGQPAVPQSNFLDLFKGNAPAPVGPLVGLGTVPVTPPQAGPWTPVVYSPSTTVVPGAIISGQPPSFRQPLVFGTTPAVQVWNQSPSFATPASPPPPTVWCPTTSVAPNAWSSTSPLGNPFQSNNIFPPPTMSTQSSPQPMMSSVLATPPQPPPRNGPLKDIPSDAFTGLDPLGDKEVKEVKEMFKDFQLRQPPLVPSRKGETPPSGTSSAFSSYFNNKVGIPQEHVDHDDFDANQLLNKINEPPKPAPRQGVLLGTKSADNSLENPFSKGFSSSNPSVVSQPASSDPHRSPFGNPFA
Put plainly: pull-down / co-immunoprecipitation from neutrophil lysates, western blot. A general note: Immunoblotting shows a protein as a band on a membrane.

B1: Dab2 (endogenous, in mouse bone marrow-derived neutrophils) (protein, UniProt P98078 2-766, looked up)
chain: SNEVETSTTNGQPDQQAAPKAPSKKEKKKGSEKTDEYLLARFKGDGVKYKAKLIGIDDVPDARGDKMSQDSMMKLKGMAAAGRSQGQHKQRIWVNISLSGIKIIDEKTGVIEHEHPVNKISFIARDVTDNRAFGYVCGGEGQHQFFAIKTGQQAEPLVVDLKDLFQVIYNVKKKEEDKKKVEEANKAEENGSEALMTLDDQANKLKLGVDQMDLFGDMSTPPDLNSPTESKDILLVDLNSEIDTNQNSLRENPFLTNGVTSCSLPRPKPQASFLPENAFSANLNFFPTPNPDPFRDDPFAQPDQSAPSSFDSLTSPDQKKASLSSSSTPQSKGPLNGDTDYFGQQFDQLSNRTGKPEAQGGPWPYPSSQTQQAVRTQNGVSEREQNGFHIKSSPNPFVGSPPKGLSVPNGVKQDLESSVQSSAHDSIAIIPPPQSTKPGRGRRTAKSSANDLLASDIFASEPPGQMSPTGQPAVPQSNFLDLFKGNAPAPVGPLVGLGTVPVTPPQAGPWTPVVYSPSTTVVPGAIISGQPPSFRQPLVFGTTPAVQVWNQSPSFATPASPPPPTVWCPTTSVAPNAWSSTSPLGNPFQSNNIFPPPTMSTQSSPQPMMSSVLATPPQPPPRNGPLKDIPSDAFTGLDPLGDKEVKEVKEMFKDFQLRQPPLVPSRKGETPPSGTSSAFSSYFNNKVGIPQEHVDHDDFDANQLLNKINEPPKPAPRQGVLLGTKSADNSLENPFSKGFSSSNPSVVSQPASSDPHRSPFGNPFA
In the case of B1, the binding result in assay [1] is recorded as “binds”.

B2: βA3/A1-crystallin protein (endogenous, wild-type astrocytes) (protein, rat, UniProt P14881 1-215, looked up)
chain: METQTVQRELETLPTTKMAQTNPMPGSMGPWKITIYDQENFQGKRMEFTSSCPNVSERSFDNVRSLKVECGAWIGYEHTSFCGQQFILERGEYPRWDAWSGSNAYHIERLMSFRPICSANHKESKITIFEKENFIGRQWEICDDYPSLQAMGWFNNEVGSMKIQCGAWVCYQYPGYRGYQYILECDHHGGDYKHWREWGTHAQTSQIQSIRRIQQ
On to B2, for which, in assay [2], the binding entry is given as “binds”.

B3: LCN-2 (endogenous, in mouse bone marrow-derived neutrophils) (protein, UniProt P11672 21-200, looked up)
chain: QDSTQNLIPAPSLLTVPLQPDFRSDQFRGRWYVVGLAGNAVQKKTEGSFTMYSTIYELQENNSYNVTSILVRDQDQGCRYWIRTFVPSSRAGQFTLGNMHRYPQVQSYNVQVATTDYNQFAMVFFRKTSENKQYFKITLYGRTKELSPELKERFTRFAKSLGLKDDNIIFSVPTDQCIDN
In the case of B3, the binding result in assay [3] is listed as “binds”.
